Laboratory results: paper PMC7782793, “Hydroxamic acid-modified peptide microarrays for profiling isozyme-selective interactions and inhibition of histone deacetylases” (Nature Communications, 2021)

By UniProt entry, the sequences of proteins in these tests, tags left out.
UniProt Q92769, whole entry: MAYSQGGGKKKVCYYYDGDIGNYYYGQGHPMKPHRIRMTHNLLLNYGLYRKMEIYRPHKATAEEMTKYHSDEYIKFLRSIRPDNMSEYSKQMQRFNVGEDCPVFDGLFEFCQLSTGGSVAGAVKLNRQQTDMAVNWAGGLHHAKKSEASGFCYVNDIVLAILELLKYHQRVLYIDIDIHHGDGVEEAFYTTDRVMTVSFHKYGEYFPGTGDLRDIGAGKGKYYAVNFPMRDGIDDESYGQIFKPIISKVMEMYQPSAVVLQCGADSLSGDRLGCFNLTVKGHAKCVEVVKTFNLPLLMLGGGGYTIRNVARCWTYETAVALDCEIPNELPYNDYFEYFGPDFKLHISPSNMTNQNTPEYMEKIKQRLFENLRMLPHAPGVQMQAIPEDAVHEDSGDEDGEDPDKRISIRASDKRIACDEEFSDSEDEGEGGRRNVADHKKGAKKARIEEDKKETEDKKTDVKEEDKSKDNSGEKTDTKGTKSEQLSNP
UniProt Q9BY41, whole entry: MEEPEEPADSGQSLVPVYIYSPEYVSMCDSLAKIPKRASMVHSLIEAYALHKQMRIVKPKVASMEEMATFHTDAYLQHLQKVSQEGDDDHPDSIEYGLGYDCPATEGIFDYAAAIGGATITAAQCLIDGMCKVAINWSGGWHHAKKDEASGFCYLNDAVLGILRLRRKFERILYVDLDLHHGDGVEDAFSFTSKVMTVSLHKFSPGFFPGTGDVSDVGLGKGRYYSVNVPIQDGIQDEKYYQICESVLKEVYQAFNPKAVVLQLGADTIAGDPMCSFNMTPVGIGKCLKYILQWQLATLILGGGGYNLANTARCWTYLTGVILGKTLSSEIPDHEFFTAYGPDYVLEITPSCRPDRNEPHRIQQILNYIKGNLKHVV

Legend:
HDAC2 = HDAC2 (Homo sapiens, UniProt Q92769); assay: Recombinant HDAC µSPOT microarray binding assay; settings: HDAC2 microarray dose-response curve fit, X = Asuha; for Bottom Value: bottom plateau; for Top Value: top plateau;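 on all read-outs here: Cellulose-bound peptide spots on slides incubated with six HDAC enzyme concentrations, binding intensity read, four-parameter variable-slope fit, EC50 is enzyme concentration giving half-maximal binding, in HEPES buffer pH 7.4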
HDAC8 = HDAC8 (Homo sapiens, UniProt Q9BY41); assay: Recombinant HDAC µSPOT microarray binding assay;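 on Bottom: relative spot intensity from the six enzyme-concentration slides imaged together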;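 on Top: relative spot intensity from the six enzyme-concentration slides imaged together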;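 on all read-outs here: peptide µSPOT slides incubated with varying HDAC enzyme concentrations, imaged signal intensity fitted by four-parameter variable-slope regression, EC50 is enzyme concentration giving half-maximal binding, pH 7.4 HEPES buffer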; settings: HDAC8 µSPOT microarray dose-response fit, X = Asuha, sheet Fig. 3 HDAC8; for Bottom: Bottom Value; for HillSlope: HillSlope Value; for Top: Top Value; for LogEC50 (M): logarithm of EC50 in M

Compound	Bottom Value (HDAC2)	Top Value (HDAC2)	HillSlope (Value) (HDAC2)	Bottom Value (HDAC2; sheet Fig. 3 HDAC2)	Top Value (HDAC2; sheet Fig. 3 HDAC2)	Bottom (HDAC8)	HillSlope (HDAC8)	Top (HDAC8)	LogEC50 (M) (HDAC8)	HillSlope (Value) (HDAC2; sheet Fig. 3 HDAC2)
CC(C)C[C@H](NC(=O)[C@@H](NC(=O)[C@H](CCCCCC(=O)NO)NC(=O)[C@H](CCCNC(=N)N)NC(=O)[C@H](Cc1cnc[nH]1)NC(=O)[C@H](CCCNC(=N)N)NC(=O)[C@H](CCCCN)NC(=O)[C@H](C)NC(=O)CNC(=O)CNC(=O)[C@H](CCCCN)NC(=O)CNC(=O)[C@H](CC(C)C)NC(=O)CNC(=O)[C@H](CCCCN)NC(=O)CN)C(C)C)C(=O)O	0.24	1	2.35	–	–	–	–	–	–	–
CC[C@H](C)[C@H](NC(=O)[C@H](CC(C)C)NC(=O)[C@H](CC(C)C)NC(=O)[C@H](CCC(=O)O)NC(=O)[C@@H](NC(=O)[C@H](CO)NC(=O)[C@H](CCCCCC(=O)NO)NC(=O)[C@H](CCC(N)=O)NC(=O)[C@H](Cc1ccc(O)cc1)NC(=O)[C@H](CCCNC(=N)N)NC(=O)[C@H](CCCNC(=N)N)NC(=O)[C@@H](NC(=O)[C@H](CCC(=O)O)NC(=O)[C@@H](N)CCCNC(=N)N)[C@@H](C)CC)[C@@H](C)O)C(=O)N[C@@H](CCCNC(=N)N)C(=O)N[C@@H](CCCCN)C(=O)O	–	–	–	0.1	1.07	0.1	1.36	0.83	-7.94	–
CC(C)[C@H](NC(=O)CNC(=O)CNC(=O)[C@@H](NC(=O)[C@H](C)NC(=O)[C@@H]1CCCN1C(=O)[C@H](C)NC(=O)[C@H](CO)NC(=O)[C@H](CCCCN)NC(=O)[C@H](CCCNC(=N)N)NC(=O)[C@H](C)NC(=O)[C@H](C)NC(=O)[C@H](CCCCCC(=O)NO)NC(=O)[C@@H](N)[C@@H](C)O)[C@@H](C)O)C(=O)N[C@@H](CCCCN)C(=O)N[C@@H](CCCCN)C(=O)O	–	–	–	0.25	1	0.2	2.61	0.97	-8.37	2.61

The match of structure and compound is tentative.
